Reference: doi:10.1101/2024.09.18.613619 (bioRxiv, 2024)
These are yes or no findings as the source states them, for the method shown. Some results given as binding are weak or reduced against the parent protein; the word gives no strength. Where a sequence is shown, tags or fusion partners need not be part of it.

Sequences of proteins named here, by UniProt entry; tags and fusion partners are left off.
UniProt P43588: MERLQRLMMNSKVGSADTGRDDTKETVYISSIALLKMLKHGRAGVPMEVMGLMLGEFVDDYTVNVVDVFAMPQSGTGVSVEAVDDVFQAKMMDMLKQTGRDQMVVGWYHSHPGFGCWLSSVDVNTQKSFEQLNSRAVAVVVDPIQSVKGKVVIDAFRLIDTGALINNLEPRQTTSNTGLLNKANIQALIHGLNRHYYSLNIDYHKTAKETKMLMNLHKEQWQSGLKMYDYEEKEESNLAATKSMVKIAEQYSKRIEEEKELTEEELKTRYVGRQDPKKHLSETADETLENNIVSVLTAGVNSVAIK

Tests used:
Assay in all cases: two-hybrid
[1] = target: T1, Rpn8 (Saccharomyces cerevisiae proteasome lid subunit) (S. cerevisiae) (UniProt Q08723)
T1 sequence: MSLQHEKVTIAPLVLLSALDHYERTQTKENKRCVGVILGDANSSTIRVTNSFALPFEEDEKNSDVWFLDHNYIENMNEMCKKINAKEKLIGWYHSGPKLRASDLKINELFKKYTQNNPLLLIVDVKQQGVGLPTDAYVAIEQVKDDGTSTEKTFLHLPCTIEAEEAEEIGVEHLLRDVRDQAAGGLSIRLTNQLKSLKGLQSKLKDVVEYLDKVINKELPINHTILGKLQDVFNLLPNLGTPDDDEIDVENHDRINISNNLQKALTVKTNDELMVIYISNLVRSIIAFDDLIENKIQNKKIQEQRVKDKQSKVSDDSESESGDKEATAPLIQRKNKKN

[2] = target: T2, Rpn8 (Saccharomyces cerevisiae proteasome lid subunit) (S. cerevisiae), Q08723; details: remark: other sources report otherwise
T2 chain: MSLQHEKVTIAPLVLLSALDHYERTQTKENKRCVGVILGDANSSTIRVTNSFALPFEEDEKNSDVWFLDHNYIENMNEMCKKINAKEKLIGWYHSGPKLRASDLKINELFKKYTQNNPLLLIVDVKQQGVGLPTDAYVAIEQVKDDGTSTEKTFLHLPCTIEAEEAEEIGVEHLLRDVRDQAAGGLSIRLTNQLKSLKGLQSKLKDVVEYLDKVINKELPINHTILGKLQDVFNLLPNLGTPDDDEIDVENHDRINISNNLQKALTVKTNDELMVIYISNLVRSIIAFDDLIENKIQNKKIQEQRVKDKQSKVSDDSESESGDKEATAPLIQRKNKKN

[3] = target: T3, Rpn7 (Saccharomyces cerevisiae proteasome lid subunit) (S. cerevisiae), Q06103; details: remark: other sources report otherwise
T3 chain: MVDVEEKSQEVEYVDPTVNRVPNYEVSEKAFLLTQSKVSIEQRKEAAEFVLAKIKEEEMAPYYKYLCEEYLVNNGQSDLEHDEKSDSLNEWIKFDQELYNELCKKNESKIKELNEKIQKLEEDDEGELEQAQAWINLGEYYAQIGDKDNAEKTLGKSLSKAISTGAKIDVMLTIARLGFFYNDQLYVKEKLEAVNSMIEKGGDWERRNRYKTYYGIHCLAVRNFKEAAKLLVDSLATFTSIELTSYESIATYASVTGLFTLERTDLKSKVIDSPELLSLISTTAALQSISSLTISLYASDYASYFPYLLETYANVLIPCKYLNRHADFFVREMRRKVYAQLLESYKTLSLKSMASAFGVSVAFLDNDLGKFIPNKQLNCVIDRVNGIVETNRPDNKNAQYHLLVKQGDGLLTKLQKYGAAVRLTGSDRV

[4] = target: T4, Rpn6 (Saccharomyces cerevisiae proteasome lid subunit) (S. cerevisiae), Q12377; details: remark: other sources report otherwise
T4 chain: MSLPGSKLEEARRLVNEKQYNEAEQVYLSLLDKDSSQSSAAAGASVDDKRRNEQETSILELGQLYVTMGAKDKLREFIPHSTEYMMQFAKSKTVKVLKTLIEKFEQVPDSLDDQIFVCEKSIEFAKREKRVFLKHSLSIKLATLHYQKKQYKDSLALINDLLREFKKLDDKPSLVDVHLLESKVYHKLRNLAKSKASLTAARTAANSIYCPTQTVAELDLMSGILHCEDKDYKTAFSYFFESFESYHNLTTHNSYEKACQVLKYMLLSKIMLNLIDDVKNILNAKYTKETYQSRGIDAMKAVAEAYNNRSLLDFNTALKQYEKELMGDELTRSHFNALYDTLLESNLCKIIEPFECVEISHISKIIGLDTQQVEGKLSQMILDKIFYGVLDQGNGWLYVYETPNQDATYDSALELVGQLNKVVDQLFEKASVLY

In the case of “Rpn11 (Saccharomyces cerevisiae proteasome lid subunit) (from UniProt P43588 1-306)”, the binding [1] is reported as “binds”.

B1: Rpn3 (Saccharomyces cerevisiae proteasome lid subunit), P40016 1-523 (protein)
chain: MASTAVMMDVDSSGVNDLHHSEKKYAEEDQVQELLKVLNEISKTTLTLDPRYIWRSLKDLSSLRNQELLNAETLCFTVNVLYPDSSSFKKNLLKFITSNHKSSVPGSAELRNSYPASFYSVNTEKKTIEVTAEINCFMHLLVQLFLWDSKELEQLVEFNRKVVIPNLLCYYNLRSLNLINAKLWFYIYLSHETLARSSEEINSDNQNIILRSTMMKFLKIASLKHDNETKAMLINLILRDFLNNGEVDSASDFISKLEYPHTDVSSSLEARYFFYLSKINAIQLDYSTANEYIIAAIRKAPHNSKSLGFLQQSNKLHCCIQLLMGDIPELSFFHQSNMQKSLLPYYHLTKAVKLGDLKKFTSTITKYKQLLLKDDTYQLCVRLRSNVIKTGIRIISLTYKKISLRDICLKLNLDSEQTVEYMVSRAIRDGVIEAKINHEDGFIETTELLNIYDSEDPQQVFDERIKFANQLHDEYLVSMRYPEDKKTQQNEKSENGENDDDTLDGDLMDDMSDISDLDDLGFL
B1 was tested, and the binding [2] was “no binding”.

B2: Rpn8 (Saccharomyces cerevisiae proteasome lid subunit), Q08723 1-338 (protein)
chain: MSLQHEKVTIAPLVLLSALDHYERTQTKENKRCVGVILGDANSSTIRVTNSFALPFEEDEKNSDVWFLDHNYIENMNEMCKKINAKEKLIGWYHSGPKLRASDLKINELFKKYTQNNPLLLIVDVKQQGVGLPTDAYVAIEQVKDDGTSTEKTFLHLPCTIEAEEAEEIGVEHLLRDVRDQAAGGLSIRLTNQLKSLKGLQSKLKDVVEYLDKVINKELPINHTILGKLQDVFNLLPNLGTPDDDEIDVENHDRINISNNLQKALTVKTNDELMVIYISNLVRSIIAFDDLIENKIQNKKIQEQRVKDKQSKVSDDSESESGDKEATAPLIQRKNKKN
B2 was tested, and the binding [3] was “no binding”.

B3: Rpn7 (Saccharomyces cerevisiae proteasome lid subunit), Q06103 1-429 (protein)
chain: MVDVEEKSQEVEYVDPTVNRVPNYEVSEKAFLLTQSKVSIEQRKEAAEFVLAKIKEEEMAPYYKYLCEEYLVNNGQSDLEHDEKSDSLNEWIKFDQELYNELCKKNESKIKELNEKIQKLEEDDEGELEQAQAWINLGEYYAQIGDKDNAEKTLGKSLSKAISTGAKIDVMLTIARLGFFYNDQLYVKEKLEAVNSMIEKGGDWERRNRYKTYYGIHCLAVRNFKEAAKLLVDSLATFTSIELTSYESIATYASVTGLFTLERTDLKSKVIDSPELLSLISTTAALQSISSLTISLYASDYASYFPYLLETYANVLIPCKYLNRHADFFVREMRRKVYAQLLESYKTLSLKSMASAFGVSVAFLDNDLGKFIPNKQLNCVIDRVNGIVETNRPDNKNAQYHLLVKQGDGLLTKLQKYGAAVRLTGSDRV
With B3 the binding [4] was “no binding”.
